Data source: PubChem BioAssay AID602196 (INSERM, 2012)

Assay: 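Modifiers of cisplatin sensitivity in A549 cells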
System: human A549 lung cancer cells
Reagent: siRNA pair against human genes
Time to read-out: 48 h transfection before cisplatin; time from cisplatin to read-out not stated
Conditions: cisplatin at a dose killing half of control-siRNA cells; exact dose and duration not given
Measured: 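Shift in cisplatin death relative to control siRNA, from -50 (all cells die) to +50 (no cells die); siRNAs harmful on their own scored 0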
Reading the numbers: two-siRNA summed score (-2 to +2): higher = both siRNAs protect from cisplatin killing; -2 means both sensitise; mean protection from cisplatin (shift in death) and protection from cisplatin (shift in death), siRNA C and protection from cisplatin (shift in death), siRNA D: higher = protection from cisplatin killing
Rule for the call: 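Each siRNA scores 0 if harmful alone by LDH or WST-1, otherwise +1 if it reduces and -1 if it increases cisplatin killing; a gene is active when both siRNAs agree (sum +2 or -2)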
Calls: active = both siRNAs shift cisplatin killing the same way; inactive = no consistent shift, or siRNA harmful alone
In all, the deposit lists about 23,000 reagents; this is an unselected part. 455 of all reagents (2%) were called active. 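Active includes both protection and sensitisation; some change values fall well beyond the stated -50 to +50 range.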 Not given: the amount of reagent.

Gene	two-siRNA summed score (-2 to +2)	mean protection from cisplatin (shift in death) (%)	protection from cisplatin (shift in death), siRNA C (%)	protection from cisplatin (shift in death), siRNA D (%)	outcome
PLCZ1 (phospholipase C zeta 1)	1	18	24.5	11.5	inactive
EHBP1 (EH domain binding protein 1)	0	7.6	7	8.2	inactive
AK3 (adenylate kinase 3)	-1	-1.8	9.1	-12.7	inactive
RAB3GAP2 (RAB3 GTPase activating non-catalytic protein subunit 2)	0	-4.8	-2.3	-7.4	inactive
NEXN (nexilin F-actin binding protein)	1	12.4	1.1	23.6	inactive
ATG2B (autophagy related 2B)	-1	-7.3	3.4	-17.9	inactive
DLL3 (delta like canonical Notch ligand 3)	-1	-18.1	-22.2	-14	inactive
LOC120126	0	2.4	14.6	-9.8	inactive
OR52K1 (olfactory receptor family 52 subfamily K member 1)	0	4.2	15.7	-7.4	inactive
KRT8 (keratin 8)	-1	-18.8	-28.6	-9	inactive
ZNF383 (zinc finger protein 383)	0	4.5	2.3	6.6	inactive
FBXO32 (F-box protein 32)	0	2.6	11	-5.7	inactive
CIMAP2 (ciliary microtubule associated protein 2)	0	1.3	7.9	-5.3	inactive
LOC340765	0	22.3	17.2	27.4	inactive
LOC442451	0	12.1	14.8	9.4	inactive
FANCD2 (FA complementation group D2)	1	18.7	29.9	7.6	inactive
LILRB1 (leukocyte immunoglobulin like receptor B1)	1	21.1	23.6	18.6	inactive
H4C3 (H4 clustered histone 3)	0	-1.2	1.1	-3.6	inactive
ALPK1 (alpha kinase 1)	1	9.7	26.2	-6.7	inactive
FAM30A (family with sequence similarity 30 member A)	1	8.3	3.7	12.9	inactive
RBM25 (RNA binding motif protein 25)	0	3.6	-8.7	15.9	inactive
BLTP3B (bridge-like lipid transfer protein family member 3B)	0	5.6	1.8	9.4	inactive
RBM7 (RNA binding motif protein 7)	1	8.5	10.8	6.3	inactive
C1orf87 (chromosome 1 open reading frame 87)	0	-5.7	3.2	-14.6	inactive
LOC399937	0	5.6	5.5	5.6	inactive
AGAP2 (ArfGAP with GTPase domain, ankyrin repeat and PH domain 2)	0	1	-4.9	6.9	inactive
GFRA4 (GDNF family receptor alpha 4)	0	-10.1	-15.3	-5	inactive
ELAVL1 (ELAV like RNA binding protein 1)	0	-3.7	-1.6	-5.8	inactive
LOC442615	0	4.6	2.4	6.9	inactive
NCF1 (neutrophil cytosolic factor 1)	0	1.2	-6.6	8.9	inactive
GJB7 (gap junction protein beta 7)	0	13.1	24.9	1.2	inactive
LOC440438	0	8.3	6.4	10.2	inactive
BEAN1 (brain expressed associated with NEDD4 1)	1	8.1	22.1	-5.8	inactive
GRIA1 (glutamate ionotropic receptor AMPA type subunit 1)	0	2.2	11.8	-7.5	inactive
NIM1K (NIM1 serine/threonine protein kinase)	-1	-10.8	-2.9	-18.6	inactive
FBXL4 (F-box and leucine rich repeat protein 4)	0	-9.4	10.7	-29.5	inactive
NHERF4 (NHERF family PDZ scaffold protein 4)	-1	-4.8	5.1	-14.7	inactive
NKAPD1 (NKAP domain containing 1)	0	6.3	6.2	6.5	inactive
MYL12A (myosin light chain 12A)	1	10.8	17.7	4	inactive
LCN1 (lipocalin 1)	0	17.4	26	8.8	inactive
LOC442081	0	0.4	-0.9	1.8	inactive
LOC389081	-1	4.6	22.1	-12.8	inactive
ULK1 (unc-51 like autophagy activating kinase 1)	-1	-8.1	-7.6	-8.5	inactive
FGF12 (fibroblast growth factor 12)	0	6	5.6	6.3	inactive
COG6 (component of oligomeric golgi complex 6)	0	7.9	14.5	1.3	inactive
CTNNAL1 (catenin alpha like 1)	0	8.7	16.7	0.7	inactive
GDPD3 (glycerophosphodiester phosphodiesterase domain containing 3)	0	0.5	5.3	-4.4	inactive
STIL (STIL centriolar assembly protein)	0	10.2	14.4	6	inactive
LOC389674	0	4.5	4.2	4.9	inactive
C1orf52 (chromosome 1 open reading frame 52)	1	13	16.9	9	inactive
LOC347454	0	-11.5	-10.6	-12.4	inactive
ALOXE3 (arachidonate epidermal lipoxygenase 3)	0	-6.5	-11.7	-1.2	inactive
CDC14B (cell division cycle 14B)	0	-3.5	-4.1	-2.9	inactive
GBP2 (guanylate binding protein 2)	1	2.4	-8.8	13.5	inactive
EPHA2 (EPH receptor A2)	0	1.4	-4.3	7	inactive
RBMY1A1 (RNA binding motif protein Y-linked family 1 member A1)	0	-3.7	1.8	-9.3	inactive
CRNN (cornulin)	0	7.9	26.2	-10.4	inactive

No new results follow: 7 of the entries above.
Gene	two-siRNA summed score (-2 to +2)	mean protection from cisplatin (shift in death) (%)	protection from cisplatin (shift in death), siRNA C (%)	protection from cisplatin (shift in death), siRNA D (%)	outcome
LOC442081	0	0.4	-0.9	1.8	inactive
LOC389081	-1	4.6	22.1	-12.8	inactive
ULK1 (unc-51 like autophagy activating kinase 1)	-1	-8.1	-7.6	-8.5	inactive
FGF12 (fibroblast growth factor 12)	0	6	5.6	6.3	inactive
COG6 (component of oligomeric golgi complex 6)	0	7.9	14.5	1.3	inactive
CTNNAL1 (catenin alpha like 1)	0	8.7	16.7	0.7	inactive
GDPD3 (glycerophosphodiester phosphodiesterase domain containing 3)	0	0.5	5.3	-4.4	inactive
